The values are deposited in ChEMBL (CHEMBL3988442, “University of Dundee, Small-Polar-MMV Screening Library” (2021)).

Values are the deposited “Percent Effect”, in %. The controls that fix the scale are not given in the record; negative values are as filed. The compounds are a random part of those screened. Two or more numbers in one place are separate tests of the same structure; such repeats can differ widely.

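Viability assay of Plasmodium falciparum sporozoites; the read-out is not stated. The concentration is filed as 10 mM, unlikely as a test dose, so the dose is not known. Higher reads as lower viability (inferred: compounds with an IC50 in retests scored well above the rest). Strong results were mostly tested again. Size under these conditions: about 34,000 compounds, about 280 of them at 50% or above in at least one test.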

With COc1ccc(C2=CCN(C(=O)C3CCC3)CC2)cc1 the screen gave -6.181%. Result for COC(=O)NCCC(=O)NC(C)Cc1cccc(Br)c1 (stereo not shown) was -1.159%. CCCC(NC(=O)c1ccc(C)cc1C)c1nnn[nH]1 (stereo not shown) gave -13.48%. Result for Cc1nc(O)c2nnn(C[C@H]3CCCN3C(=O)c3ccc(F)cc3)c2n1 was -1.243%. With CN1CCC2(CC1)CC(NC(=O)c1csnn1)c1ccccc1O2.O=C(O)C(F)(F)F (stereo not shown) the screen gave 2.3%. With O=c1cc(-c2ccccc2)nc2n1CCCCC2 the screen gave -10.35%. For CCOCCCNC(=O)c1cc(C(C)C)nc(N2CCCCCC2)n1 the result was 11.18%.

CN(C)C(=O)CN1C(=O)CCC12CCN(Cc1ccsc1)CC2.O=C(O)C(F)(F)F gave 0.722%. Result for O=C(O)C(F)(F)F.O=C(O)C(F)(F)F.[H][C@@]12COC[C@]1(C(=O)NCc1ccccn1)CN(Cc1ccccc1F)C2 was 13.07%. For CN(C)C(=O)COCC1CN(S(C)(=O)=O)Cc2ncn(C)c21.O=C(O)C(F)(F)F (stereo not shown) the result was 0.4386%. Result for Cc1c(C(=O)NC2(C#N)CCCC2)nnn1-c1ccccc1Cl was -3.7%. O=C(Nc1cccc(C(F)(F)F)c1)C1CC(=O)N(Cc2ccccn2)C1 (stereo not shown) gave 13.53%. CCOc1cccc(CNCc2ccc(NC(=O)NC(C)C)cc2)c1 read 2.971%. Result for Cc1cc(C)c2nc(C)c(C(=O)N3CCC(CCN(C)C)CC3)cc2c1 was -8.546%.

CN1CCCN(CCCNC2CCc3cc4c(cc32)OCCO4)CC1 (stereo not shown) gave 12.81% & 15.58%. Result for Cc1ccccc1CS(=O)(=O)NCCCN1CCCC1 was -3.195%. CCc1nc(C2CCCN2C(=O)CCCn2cncn2)no1 (stereo not shown) gave 3.648%. With CCn1cc(CN2CCCN(C(=O)Cc3cccs3)CC2)cn1 the screen gave 12.42%. O=C(O)C(F)(F)F.[H][C@@]12CN(Cc3nccs3)C[C@]1([H])C(=O)N(c1ccsc1)C2 read -6.4%. O=C(O)C(F)(F)F.O=C(O)C(F)(F)F.[H][C@@]12OCCC[C@]1([H])N(Cc1cccc(C)n1)C[C@@H]2NS(C)(=O)=O gave -22.84%. CCNc1cc2c(nn1)CCN(C(=O)c1cc(C)no1)C2 gave 4.272%.

Cc1nc(C2CCCN(C(=O)c3cccc(S(C)(=O)=O)c3)C2)no1 (stereo not shown) gave -18.62%. For O=C(NCc1ccccc1CN1CCC(O)CC1)Nc1cccnc1 the result was -2.941%. [H][C@@]12CN(Cc3ccccc3C)CC[C@]1([H])N(C(C)=O)C[C@H]2c1ccsc1 read 15.33%. CCc1cccc2cc(CNCCOC)c(=O)[nH]c12 gave 10.88%. CC(C(=O)NCCOc1ccc2c(c1)CCC2)n1cncn1 (stereo not shown) read 11.8%. Clc1ccc(-n2cnnc2CCCN2CCOCC2)cc1 gave -10.77%. Cc1cc(C2CCCN(C(=O)c3ccc(Cl)o3)C2)n[nH]1 (stereo not shown) read 1.167%.

CCC1(CC)Cc2ccccc2-c2nc(CN(C)C)nc(O)c21 gave 1.466%. With O=C(O)CC(O)(CC(=O)O)C(=O)O.c1ccc([C@@H]2CN(Cc3cccnc3)C[C@H]2c2cc[nH]n2)cc1 the screen gave -0.5073%. Cc1nc(-c2ccc(CC(=O)N3CCN(C(=O)C(C)C)CC3)cc2)cs1 read 2.485%. CN(C)C(=O)C1(C)CN(Cc2cn(C)c3ccccc23)CCO1 (stereo not shown) gave -1.598%. With COc1ccc(-c2cc(C3CCNCC3)ccn2)cc1.Cl the screen gave -4.308%. O=C1NCC(C(=O)Nc2ncc(Cc3ccc(F)cc3F)s2)N1 (stereo not shown) read 11.96%. Result for CCCc1noc(CCC(=O)N2CCCC(n3ccnc3C)C2)n1 (stereo not shown) was -10.03%.

CN1CC(=O)N(c2cccc(F)c2)CC12CCN(S(C)(=O)=O)C2.O=C(O)C(F)(F)F (stereo not shown) gave 5.486%. With COc1ccccc1C1(CNc2snc(Cl)c2C#N)CCOCC1 the screen gave -20.57%. With COc1cc(CNc2cnn(C)c2)cc2c1OCCO2 the screen gave 6.101%. CN(C)Cc1ccnc(NS(=O)(=O)Cc2cccc(F)c2)c1 gave -6.044% & 10.43%. COCCN(C)[C@@H]1c2ccccc2C2(CCNCC2)[C@H]1O gave 3.727%. O=C(c1cccc(S(=O)(=O)NCCc2ccccn2)c1)N1CCOCC1 gave -4.474%. CCN(CCNC(=O)c1cccc(C)c1C)C1CC1 read 17.34%.

With CC(C)N1CCC(Cc2cncc(-c3ccccc3C(=O)O)n2)CC1 the screen gave -1.499%. Result for CNCC(=O)N[C@H]1CN(c2nc(C)c3c(n2)CCCC3)C[C@@H]1C1CC1 was 74.85% & 85.09%. O=C(O)C(F)(F)F.O=C1CCCN1Cc1ncn2c1CN(Cc1cccs1)CCC2 gave -7.576%. With [H][C@@]12CCN(C(=O)c3cnccn3)C[C@@]1([H])O[C@H](C)C2 the screen gave -11.95%. Result for COCCN1CCC(CNC(=O)C2(c3ccccc3)CCC2)C1 (stereo not shown) was -4.109%. With Cc1cc(NC(=O)NCc2ccccn2)n(C)n1 the screen gave -9.069%. With O=C(NCc1ccnc(C2CCCOC2)n1)c1cccs1 (stereo not shown) the screen gave 5.89%.

With COc1ccc(OC)c(C(=O)N2CCCCC2Cn2cccn2)c1 (stereo not shown) the screen gave 3.64%. CN1CCOC(CNCc2coc(-c3cccc(Cl)c3)n2)C1 (stereo not shown) read 12.43%. [H][C@@]12CS(=O)(=O)C[C@]1([H])N(C(=O)c1cc(C(C)C)on1)CCN2CCOC gave -10.53%. CN(C)CCNC(=O)c1nc2c(s1)CCCN2C(=O)C1CC1.O=C(O)C(F)(F)F gave 4.553%. O=C(c1cccc2cn[nH]c12)N1CCCC1c1noc(C2CC2)n1 (stereo not shown) gave 20.92%. O=C(c1cn(-c2ccccc2Cl)nn1)N1CCN(CCO)CC1 read -15.84% & -12.97%. O=C(NCc1cccnc1N1CCCCC1)c1ccc2c(c1)OCO2 read 0.3581%.

Some entries from above, unchanged:

Compound,Percent Effect
O=C(O)CC(O)(CC(=O)O)C(=O)O.c1ccc([C@@H]2CN(Cc3cccnc3)C[C@H]2c2cc[nH]n2)cc1,-0.5073
CCn1cc(CN2CCCN(C(=O)Cc3cccs3)CC2)cn1,12.42
CN(C)C(=O)C1(C)CN(Cc2cn(C)c3ccccc23)CCO1 (stereo not shown),-1.598
Cc1ccccc1CS(=O)(=O)NCCCN1CCCC1,-3.195